Source: the supplement of paper PMC3334620
Over roughly 33,000 sequences, “E-score (-0.5 to 0.5)” has its median near -0.016; the highest 2% begin near 0.3. This is one part of the list.

Molecular target: T1, Yer184c (UniProt P39961)
T1 sequence: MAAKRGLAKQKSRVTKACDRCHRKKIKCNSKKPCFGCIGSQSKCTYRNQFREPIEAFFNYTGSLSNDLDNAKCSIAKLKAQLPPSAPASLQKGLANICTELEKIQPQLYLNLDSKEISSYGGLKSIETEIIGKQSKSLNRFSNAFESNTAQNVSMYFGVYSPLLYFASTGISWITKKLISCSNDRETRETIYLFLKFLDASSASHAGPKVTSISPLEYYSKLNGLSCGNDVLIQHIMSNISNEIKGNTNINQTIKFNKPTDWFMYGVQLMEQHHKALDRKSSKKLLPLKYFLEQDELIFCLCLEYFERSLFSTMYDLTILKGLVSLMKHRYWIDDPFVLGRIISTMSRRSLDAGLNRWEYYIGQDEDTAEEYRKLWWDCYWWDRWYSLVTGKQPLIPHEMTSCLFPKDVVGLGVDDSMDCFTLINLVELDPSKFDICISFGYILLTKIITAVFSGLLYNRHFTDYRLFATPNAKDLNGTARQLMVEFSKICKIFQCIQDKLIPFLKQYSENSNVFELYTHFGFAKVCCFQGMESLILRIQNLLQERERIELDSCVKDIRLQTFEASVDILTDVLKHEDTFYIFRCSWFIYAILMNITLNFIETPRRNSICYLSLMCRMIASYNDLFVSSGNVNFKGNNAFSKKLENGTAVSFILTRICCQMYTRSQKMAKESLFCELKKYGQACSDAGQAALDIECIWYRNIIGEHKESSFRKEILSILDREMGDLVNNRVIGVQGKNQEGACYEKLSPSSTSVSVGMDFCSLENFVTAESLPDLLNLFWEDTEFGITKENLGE
Experiment: PBM E-score (8-mer binding enrichment) (E-score (-0.5 to 0.5)); higher = stronger / more preferred TF binding
Conditions: protein concentration: 100 nM; construct: GST-full length
Summary of the method: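 Yeast transcription factors, full-length or as DNA-binding domains, were expressed with a GST tag using PURExpress in vitro transcription/translation. At about 100-200 nM they were applied to universal all-10-mer Agilent arrays, double-stranded by primer extension on fresh or once-stripped slides. Fluorescent anti-GST detected bound protein, and masliner normalised the scans. E-scores for ungapped eight-base words, pooled with reverse complements, came from the Universal PBM Analysis Suite.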

| Sequence | PBM E-score |
| --- | --- |
| GACGAGTA | 0.0407 |
| AGAGTTAT | -0.0321 |
| CCCCCGCC | -0.254 |
| GACACAGC | 0.0337 |
| ACTTACGA | 0.143 |
| AGGGTGGA | -0.209 |
| ATAGTATG | 0.14 |
| CAGTGTAG | 0.0719 |
| ATAACCTC | -0.045 |
| CACCCGCC | 0.15 |
| CGGGAAGC | 0.138 |
| GGAACTAC | 0.101 |
| GAAAAACA | 0.0622 |
| TAGGAGGA | -0.134 |
| CCCTGGCA | -0.241 |
| ACCTCAAA | 0.137 |
| ATATATAT | 0.336 |
| GCTCACAA | 0.0464 |
| ATATCAAC | 0.145 |
| CGTCCAAC | -0.113 |
| CTAGGCTC | -0.177 |
| ACCGCGTG | 0.0132 |

| Sequence | PBM E-score |
| --- | --- |
| AAGACACA | 0.0112 |
| GTCCCGAA | 0.0202 |
| AAATATCT | 0.163 |
| CAGCATGA | -0.179 |
| ACCGGGTA | 0.0512 |
| CGATGTCA | 0.0416 |
| CCATCATC | -0.0628 |
| AACGCTAG | -0.0531 |
| ACGTCTCT | 0.0341 |
| TCCAGGCA | -0.15 |
| AGAACGAG | 0.0599 |
| ACGTAGAT | -0.0898 |
| GATTCCAC | 0.259 |
| AGGACCAC | -0.14 |
| CACAAAGA | 0.19 |
| GGCTTCGA | -0.0295 |
| GTCCTTTA | 0.0142 |
| CGCGCCAG | 0.0148 |
| GGCGGGAC | -0.0223 |
| ACCTCGTC | -0.0978 |
| GTGCCTCA | -0.15 |
| GGTGGAAA | -0.179 |

| Sequence | PBM E-score |
| --- | --- |
| GGATAATA | 0.194 |
| AAAGATTC | 0.213 |
| AAGGTGAC | -0.0789 |
| GTCGCAAC | -0.133 |
| CTAACATA | 0.116 |
| CACGCGGC | 0.00537 |
| CGATGGGC | -0.11 |
| CAATACTC | 0.0583 |
| ATGAGCTC | -0.0459 |
| CTCTGTTC | 0.0192 |
| CTAGAAAA | 0.0997 |
| GGTAAAAA | 0.198 |
| TCTGATAA | -0.0518 |
| TATCCAAA | 0.109 |
| GCTAAAGA | 0.0684 |
| AAGGACAC | 0.03 |
| ACTGTCGC | -0.13 |
| GAAGCTCC | 0.0674 |
| CCCAAGCA | -0.115 |
| CATACAGC | -0.253 |
| GCTCCAGC | -0.0486 |
| AGTCGTAA | 0.105 |

| Sequence | PBM E-score |
| --- | --- |
| GCCACGGC | 0.0819 |
| GGGAGCAA | -0.223 |
| GGCACGGA | 0.168 |
| CCTCTCTA | -0.316 |
| CTCTTGTA | -0.00465 |
| GCGCGTGA | 0.0968 |
| AAAACCAC | -0.00328 |
| GGGTACAC | -0.156 |
| ACACTAGG | -0.0387 |
| CTCCATAC | 0.02 |
| GACGCTTA | -0.148 |
| CATCCTAC | -0.108 |
| AGCCACTG | -0.0745 |
| GAATCTAA | 0.164 |
| AGCTGGCC | -0.0332 |
| GCGATTTA | 0.0609 |
| GATAGGGC | -0.0906 |
| AAAGGAAT | 0.0566 |
| CCCCCGAA | -0.167 |
| GCCGGAAA | 0.426 |
